# Laboratory results: patent US20160272721A1
# The chains behind the UniProt entries cited, without tags or fusion partners. Residues count along the entry.
# UniProt Q62432, residues 2-467: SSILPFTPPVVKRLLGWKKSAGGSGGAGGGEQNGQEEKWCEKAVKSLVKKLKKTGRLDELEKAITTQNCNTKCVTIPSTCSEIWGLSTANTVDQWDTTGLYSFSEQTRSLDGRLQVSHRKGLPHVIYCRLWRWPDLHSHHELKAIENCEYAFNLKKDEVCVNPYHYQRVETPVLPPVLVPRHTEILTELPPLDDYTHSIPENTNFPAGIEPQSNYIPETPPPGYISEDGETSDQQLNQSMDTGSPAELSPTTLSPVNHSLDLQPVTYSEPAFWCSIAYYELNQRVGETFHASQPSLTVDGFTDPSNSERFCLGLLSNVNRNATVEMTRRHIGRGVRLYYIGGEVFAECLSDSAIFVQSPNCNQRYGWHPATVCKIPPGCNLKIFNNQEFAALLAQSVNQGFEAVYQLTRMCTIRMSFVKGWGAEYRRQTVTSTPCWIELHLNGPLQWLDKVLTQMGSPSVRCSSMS
# These are yes or no findings as the source states them, for the method shown. Binding seen in cells or lysates may run through a third protein. Some entries that bind do so weakly or less than the wild type.
# Biological target: T1, TGF-β type I receptor (in mouse embryonic fibroblasts) (mouse) (UniProt Q64729)
# T1 sequence (looked up): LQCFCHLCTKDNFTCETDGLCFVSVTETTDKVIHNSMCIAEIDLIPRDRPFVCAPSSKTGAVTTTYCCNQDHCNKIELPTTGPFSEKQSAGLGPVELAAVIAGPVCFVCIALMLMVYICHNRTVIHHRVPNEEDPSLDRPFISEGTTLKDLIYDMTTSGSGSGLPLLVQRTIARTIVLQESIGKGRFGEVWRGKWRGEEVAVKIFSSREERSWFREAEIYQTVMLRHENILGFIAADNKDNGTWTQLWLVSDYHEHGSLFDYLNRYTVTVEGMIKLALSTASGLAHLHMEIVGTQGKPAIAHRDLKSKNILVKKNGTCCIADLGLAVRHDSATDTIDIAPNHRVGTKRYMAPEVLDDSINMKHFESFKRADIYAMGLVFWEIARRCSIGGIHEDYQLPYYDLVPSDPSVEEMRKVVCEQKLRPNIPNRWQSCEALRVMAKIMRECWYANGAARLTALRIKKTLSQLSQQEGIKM
# Experiment: co-immunoprecipitation of type I receptor with Smad2 from MEFs (FIG. 2e)
substance,measurement,value
Smad2 (in mouse embryonic fibroblasts) (from UniProt Q62432 2-467),binding,binds
